Results deposited as PubChem BioAssay AID1259308 (NCATS, 2017)
Assay: 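Genes whose loss raises luciferase production in HEK293 cells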 (primary screen). System: human HEK293 embryonic kidney cells stably expressing firefly luciferase (HEK-CMV-Luc2-Hygro). Reagent: single siRNA against human genes, 0.8 pmol siRNA per well. Timing: 72 h. Detection: 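Reporter luminescence and viable-cell signal on separate replicate plates, given as percent of non-targeting control and median/MAD z-scores, plus per-cell luciferase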. Reading the numbers: total luciferase, z-score: higher = more reporter protein produced. Rule for the call: 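Active when the median/MAD z-score for overall luciferase is greater than 3; a gene was taken forward for validation with new siRNAs if at least two of its three siRNAs passed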. Calls: active = raised luciferase; inactive = no rise.
Here is one part, drawn at random, of about 59,000 deposited reagents. In the full data, about 1,510 (2.6%) got an active call. 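Calls use total luciferase alone and ignore viability, so some active siRNAs may act by altering cell number.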 Unmarked entries are inactive. The numbers tell different reagents against one gene apart. Further read-outs or replicates are left out here. Reagent sequences are not shown.

DDX6 (GeneID 1656) #1: total luciferase, z-score = 0.826
DDX6 (GeneID 1656) #2: total luciferase, z-score = 3.36 (active)
DDX6 (GeneID 1656) #3: total luciferase, z-score = 2.03
GAK (GeneID 2580) #1: total luciferase, z-score = 0.109
GAK (GeneID 2580) #2: total luciferase, z-score = 0.664
GAK (GeneID 2580) #3: total luciferase, z-score = 0.755
RPL37A (GeneID 6168) #1: total luciferase, z-score = -2.5
RPL37A (GeneID 6168) #2: total luciferase, z-score = -1.74
RPL37A (GeneID 6168) #3: total luciferase, z-score = -1.51

Entries listed above called active, once more:
DDX6 (GeneID 1656) #2: total luciferase, z-score = 3.36 (active)

Additional results:
TNFRSF11B (GeneID 4982) #1: total luciferase, z-score = 1.33
TNFRSF11B (GeneID 4982) #2: total luciferase, z-score = -0.221
TNFRSF11B (GeneID 4982) #3: total luciferase, z-score = -0.867
PTPN13 (GeneID 5783) #1: total luciferase, z-score = 0.396
PTPN13 (GeneID 5783) #2: total luciferase, z-score = 1.11
PTPN13 (GeneID 5783) #3: total luciferase, z-score = 0.186
NKX2-5 (GeneID 1482) #1: total luciferase, z-score = -0.535
NKX2-5 (GeneID 1482) #2: total luciferase, z-score = 1.09
NKX2-5 (GeneID 1482) #3: total luciferase, z-score = -0.228
ZNF432 (GeneID 9668) #1: total luciferase, z-score = -0.283
ZNF432 (GeneID 9668) #2: total luciferase, z-score = -0.587
ZNF432 (GeneID 9668) #3: total luciferase, z-score = -0.322
